In patent US20230047208A1, “RNA Splicing Modulation” (The General Hospital Corporation, priority 2020, published 2023):
The source gives many values for each of these; only a part stands here.

System: wildtype (WT) human fibroblast cell lines
Assay: Transcriptome-wide splicing by RNA sequencing (RNASeq), exon triplet PSI change;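 as to Effect: six WT fibroblast lines treated seven days versus DMSO vehicle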;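 as to T-PSI: T-PSI is average treated PSI after seven days of treatment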
Assay type: cell-based
Set-up: key to Effect: Exclusion; Inclusion; Unchanged
Source text: FIG. 2A provides a representation of an exon triplet. Exon U is upstream of Exon X, which is upstream of Exon D. R1, R2 and R3 represent RNA sequencing (RNASeq) reads spanning the regions between two adjacent exons. UI1, I1X, XI2 and I2D are four regions flanking the four splice sites of the exon-triplet. Each flanking region consists of 25 exonic base pairs and 75 intronic base pairs.
FIG. 2B provides a volcano plot showing the ψ (PSI: Percent Spliced-In) changes in splicing after treatment with Compound (I). Each dot represents one of the 161,097 expressed exon triplets in human fibroblasts. The x axis represents the ψ changes after treatment and the y axis represents the False Discovery Rate (FDR) (log 10 transformed). […] The horizontal dashed line indicates an FDR of 0.1. The dots on the right side of the right vertical dashed line and above the horizontal dashed line represent the exon-triplets with an increase for Exon X inclusion (Δψ≥0.1 and FDR<0.1) while the dots on left side of the left vertical dashed line and above the horizontal dashed line represent an increase for Exon X exclusion (Δψ≤−0.1 and FDR<0.1). Black dots in-between the two vertical dashed lines represent exon-triplets unchanged from the treatment.
In some aspects, analysis is performed on data derived from the assay to measure the magnitude of splicing to determine the amount of exons spliced into an mRNA transcript that is produced in the presence of Compound (I) relative to the amount in the absence of Compound (I) or presence of a negative control. In a preferred aspect, the method utilized is calculation of change in Percent Spliced In (ΔPSI). […] The ΔPSI value is derived from the formula: […]
The values for “a” and “b” represent the number of reads supporting the probability for potential inclusion or exclusion of an exon in an RNA transcript. The “a” value is derived from the number of reads within an exon triplet covering, in 5′ to 3′ order: the last few bases (>1 nucleotide) of an upstream exon operably linked to the first few bases (>1 nucleotide) of a middle exon. The “b” value is derived from the number of reads within an exon triplet covering, in 5′ to 3′ order: the last few bases (>1 nucleotide) of the middle exon operably linked to the first few bases (>1 nucleotide) of a downstream exon. The number of reads will indicate whether the splice junction of a middle exon has been identified as potentially having a CNN Motif(s) by the CNN Model described herein, wherein the inclusion or exclusion of the middle exon may be modulated in the presence of Compound (I) to produce one or more mature RNA isoforms from the gene transcript. The value for “c” represents the number of reads supporting the exclusion of the middle exon.
The effect on splicing modulation and corresponding splice differences toward exon inclusion or exclusion was determined by counting the RNASeq reads covering two splice junctions of exon triplets (three consecutive exons: Exon U, Exon X, Exon D) and the corresponding intervening introns, then comparing the change in Percent Spliced In (ΔPSI or Δψ) of the middle exon (Exon X) after treatment (as shown in FIG. 2A)^52,53. 934 exon triplets were identified showing differential middle exon inclusion or exclusion in response to Compound (I) treatment. Of these, 254 were exon inclusion events (Δψ≥0.1 and FDR<0.1) and 680 were exon exclusion events (Δψ≤−0.1 and FDR<0.1) (as shown in FIG. 2B). […] The splicing results were evaluated by RT-PCR in independent replicate experiments, confirming all the calculated Δψ values. […]

[1] = EIF4A2 Exon 186502751-186502890
[2] = EIF4E2 Exon 233422594-233422728
[3] = EPB41L1 Exon 34807683-34807766, Intron1 34802363-34807682
[4] = EPB41L1 Exon 34807683-34807766, Intron1 34806885-34807682
[5] = EPB41L2 Exon 131191468-131191521
[6] = ERMARD Exon 170153383-170153468
[7] = ERMARD Exon 170153413-170153468
[8] = FAM13B Exon 137281917-137282000
[9] = FAM13B Exon 137354644-137354835
[10] = FAM45A Exon 120864276-120864534

Clc1nc(NCc2ccncc2)c2cc[nH]c2n1 [Compound (I), 2-chloro-N-(pyridin-4-ylmethyl)-7H-pyrrolo[2,3-d]pyrimidin-4-amine]
T-PSI (EHBP1 Exon 63215066-63215173): 0.133
ΔPSI (EHBP1 Exon 63215066-63215173): −0.103
Effect (EHBP1L1 Exon 65351063-65351236): Unc
T-PSI (EHBP1L1 Exon 65351063-65351236): 0.841
ΔPSI (EHBP1L1 Exon 65351063-65351236): −0.004
Effect (EHMT2 Exon 31856746-31856847): Exc
T-PSI (EHMT2 Exon 31856746-31856847): 0.761
ΔPSI (EHMT2 Exon 31856746-31856847): −0.133
Effect [1]: Exc
T-PSI [1]: 0.622
ΔPSI [1]: −0.138
Effect [2]: Exc
T-PSI [2]: 0.858
ΔPSI [2]: −0.111
Effect (EIF4G2 Exon 10823208-10823321): Unc
T-PSI (EIF4G2 Exon 10823208-10823321): 0.889
ΔPSI (EIF4G2 Exon 10823208-10823321): 0.009
Effect (EIF4H Exon 73604577-73604636): Inc
T-PSI (EIF4H Exon 73604577-73604636): 0.194
ΔPSI (EIF4H Exon 73604577-73604636): 0.113
Effect (ELK1 Exon 47509320-47509425): Exc
T-PSI (ELK1 Exon 47509320-47509425): 0.261
ΔPSI (ELK1 Exon 47509320-47509425): −0.209
Effect (ELMOD3 Exon 85582678-85582839): Unc
T-PSI (ELMOD3 Exon 85582678-85582839): 0.738
ΔPSI (ELMOD3 Exon 85582678-85582839): −0.010
Effect (ELMOD3 Exon 85598563-85598685): Unc
T-PSI (ELMOD3 Exon 85598563-85598685): 0.679
ΔPSI (ELMOD3 Exon 85598563-85598685): −0.009
Effect (ELN Exon 73471970-73472026): Exc
T-PSI (ELN Exon 73471970-73472026): 0.531
ΔPSI (ELN Exon 73471970-73472026): −0.151
Effect (ELN Exon 73474470-73474514): Exc
T-PSI (ELN Exon 73474470-73474514): 0.821
ΔPSI (ELN Exon 73474470-73474514): −0.167
Effect (ELOVL1 Exon 43830857-43831047): Exc
T-PSI (ELOVL1 Exon 43830857-43831047): 0.841
ΔPSI (ELOVL1 Exon 43830857-43831047): −0.113
Effect (EMC4 Exon 34520630-34520790): Unc
T-PSI (EMC4 Exon 34520630-34520790): 0.806
ΔPSI (EMC4 Exon 34520630-34520790): −0.001
Effect (EMC4 Exon 34520638-34520790): Unc
T-PSI (EMC4 Exon 34520638-34520790): 0.655
ΔPSI (EMC4 Exon 34520638-34520790): −0.002
Effect (ENC1 Exon 73933319-73933443): Unc
T-PSI (ENC1 Exon 73933319-73933443): 0.128
ΔPSI (ENC1 Exon 73933319-73933443): −0.006
Effect (ENC1 Exon 73933390-73933526): Inc
T-PSI (ENC1 Exon 73933390-73933526): 0.356
ΔPSI (ENC1 Exon 73933390-73933526): 0.248
Effect (ENOSF1 Exon 678696-678737): Exc
T-PSI (ENOSF1 Exon 678696-678737): 0.804
ΔPSI (ENOSF1 Exon 678696-678737): −0.138
Effect (EP400 Exon 132448077-132448187): Unc
T-PSI (EP400 Exon 132448077-132448187): 0.214
ΔPSI (EP400 Exon 132448077-132448187): −0.006
Effect [3]: Exc
T-PSI [3]: 0.759
ΔPSI [3]: −0.119
Effect [4]: Exc
T-PSI [4]: 0.839
ΔPSI [4]: −0.101
Effect [5]: Inc
T-PSI [5]: 0.713
ΔPSI [5]: 0.411
Effect (EPS15L1 Exon 16487933-16488065): Unc
T-PSI (EPS15L1 Exon 16487933-16488065): 0.852
ΔPSI (EPS15L1 Exon 16487933-16488065): −0.006
Effect (ERBB2IP Exon 65370852-65371058): Exc
T-PSI (ERBB2IP Exon 65370852-65371058): 0.245
ΔPSI (ERBB2IP Exon 65370852-65371058): −0.190
Effect (ERLEC1 Exon 54035436-54035597): Exc
T-PSI (ERLEC1 Exon 54035436-54035597): 0.745
ΔPSI (ERLEC1 Exon 54035436-54035597): −0.112
Effect (ERMAP Exon 43305704-43305724): Exc
T-PSI (ERMAP Exon 43305704-43305724): 0.830
ΔPSI (ERMAP Exon 43305704-43305724): −0.151
Effect [6]: Unc
T-PSI [6]: 0.108
ΔPSI [6]: 0.005
Effect [7]: Unc
T-PSI [7]: 0.108
ΔPSI [7]: 0.005
Effect (ETHE1 Exon 44030353-44030501): Exc
T-PSI (ETHE1 Exon 44030353-44030501): 0.637
ΔPSI (ETHE1 Exon 44030353-44030501): −0.216
Effect (ETHE1 Exon 44030667-44030811): Exc
T-PSI (ETHE1 Exon 44030667-44030811): 0.882
ΔPSI (ETHE1 Exon 44030667-44030811): −0.108
Effect (EVA1A Exon 75753238-75753325): Unc
T-PSI (EVA1A Exon 75753238-75753325): 0.533
ΔPSI (EVA1A Exon 75753238-75753325): −0.005
Effect (EVC Exon 5819938-5819981): Exc
T-PSI (EVC Exon 5819938-5819981): 0.376
ΔPSI (EVC Exon 5819938-5819981): −0.496
Effect (EVI5L Exon 7921978-7922010): Exc
T-PSI (EVI5L Exon 7921978-7922010): 0.479
ΔPSI (EVI5L Exon 7921978-7922010): −0.197
Effect [8]: Unc
T-PSI [8]: 0.874
ΔPSI [8]: 0.000
Effect [9]: Unc
T-PSI [9]: 0.861
ΔPSI [9]: 0.001
Effect (FAM21C Exon 46272721-46272873): Inc
T-PSI (FAM21C Exon 46272721-46272873): 0.663
ΔPSI (FAM21C Exon 46272721-46272873): 0.243
Effect (FAM35A Exon 88935646-88935852): Unc
T-PSI (FAM35A Exon 88935646-88935852): 0.743
ΔPSI (FAM35A Exon 88935646-88935852): 0.006
Effect [10]: Unc
T-PSI [10]: 0.664
ΔPSI [10]: 0.009
Effect (FAM104A Exon 71208817-71208879): Exc
T-PSI (FAM104A Exon 71208817-71208879): 0.197
ΔPSI (FAM104A Exon 71208817-71208879): −0.113
